PubChem BioAssay AID1259308 – NCATS | 2017
In all, the deposit lists about 59,000 reagents; shown is a part drawn at random. About 1,510 of them (2.6%) count as active. 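Calls use total luciferase alone and ignore viability, so some active siRNAs may act by altering cell number.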 A number with no mark means an inactive call. The numbers tell different reagents against one gene apart. Further read-outs or replicates are left out here. No sequences are given here.

Test: 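Genes whose loss raises luciferase production in HEK293 cells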 (primary screen)
Cell system: human HEK293 embryonic kidney cells stably expressing firefly luciferase (HEK-CMV-Luc2-Hygro)
Reagent: single siRNA against human genes, 0.8 pmol siRNA per well
Timing: 72 h
Measurement: 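Luciferase light (ONE-Glo) measured on one replicate plate set and viability (CellTiter-Glo) on the other, scaled to a negative control siRNA, with robust z-scores and luciferase per cell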
Scale: total luciferase, z-score and total luciferase, % of control: higher = more reporter protein produced
Call rule: 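Active when the median/MAD z-score for overall luciferase is greater than 3; a gene was taken forward for validation with new siRNAs if at least two of its three siRNAs passed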
Meaning of the calls: active = raised luciferase; inactive = no rise

| gene | reagent | total luciferase, z-score | total luciferase, % of control |
| --- | --- | --- | --- |
| LRRC25 (leucine rich repeat containing 25) | 1 | -0.868 | 64.6 |
| LRRC25 (leucine rich repeat containing 25) | 2 | 1.11 | 104 |
| LRRC25 (leucine rich repeat containing 25) | 3 | -0.89 | 64.2 |
| SPATA31D1 (SPATA31 subfamily D member 1) | 1 | 0.114 | 84.2 |
| SPATA31D1 (SPATA31 subfamily D member 1) | 2 | -0.0157 | 81.6 |
| SPATA31D1 (SPATA31 subfamily D member 1) | 3 | -0.189 | 78.1 |
| MIMS2 (mitochondrial inner membrane structural 2) | 1 | 1.61 | 114 |
| MIMS2 (mitochondrial inner membrane structural 2) | 2 | -0.941 | 63.2 |
| MIMS2 (mitochondrial inner membrane structural 2) | 3 | -0.183 | 78.2 |
| TECTB (tectorin beta) | 1 | -1.71 | 47.8 |
| TECTB (tectorin beta) | 2 | 1.72 | 116 |
| TECTB (tectorin beta) | 3 | 1.73 | 116 |
| ZNF367 (zinc finger protein 367) | 1 | 0.00993 | 82.1 |
| ZNF367 (zinc finger protein 367) | 2 | -1.01 | 61.9 |
| ZNF367 (zinc finger protein 367) | 3 | -0.697 | 68 |
| ZNF76 (zinc finger protein 76) | 1 | 0.0636 | 83.2 |
| ZNF76 (zinc finger protein 76) | 2 | -0.77 | 66.6 |
| ZNF76 (zinc finger protein 76) | 3 | 0.91 | 100 |
| PPP6R1 (protein phosphatase 6 regulatory subunit 1) | 1 | 0.901 | 99.8 |
| PPP6R1 (protein phosphatase 6 regulatory subunit 1) | 2 | 0.664 | 95.1 |
| PPP6R1 (protein phosphatase 6 regulatory subunit 1) | 3 | 0.00821 | 82 |
| TIMM10 (translocase of inner mitochondrial membrane 10) | 1 | 0.281 | 87.5 |
| TIMM10 (translocase of inner mitochondrial membrane 10) | 2 | -0.294 | 76 |
| TIMM10 (translocase of inner mitochondrial membrane 10) | 3 | -0.493 | 72.1 |
| GPC2 (glypican 2) | 1 | -0.834 | 65.3 |
| GPC2 (glypican 2) | 2 | 0.834 | 98.5 |
| GPC2 (glypican 2) | 3 | -0.211 | 77.7 |
| DEUP1 (deuterosome assembly protein 1) | 1 | -0.996 | 62.1 |
| DEUP1 (deuterosome assembly protein 1) | 2 | -0.516 | 71.6 |
| DEUP1 (deuterosome assembly protein 1) | 3 | -0.522 | 71.5 |
| TIMMDC1 | 1 | 1.23 | 106 |
| TIMMDC1 | 2 | -0.0573 | 80.7 |
| TIMMDC1 | 3 | 2 | 122 |
| EIPR1 (EARP complex and GARP complex interacting protein 1) | 1 | -0.432 | 73.3 |
| EIPR1 (EARP complex and GARP complex interacting protein 1) | 2 | 3.05 (active) | 143 |
| EIPR1 (EARP complex and GARP complex interacting protein 1) | 3 | -1.19 | 58.3 |
| INTS6 (integrator complex subunit 6) | 1 | 0.171 | 85.3 |
| INTS6 (integrator complex subunit 6) | 2 | 0.792 | 97.6 |
| INTS6 (integrator complex subunit 6) | 3 | 0.649 | 94.8 |

Records listed so far whose target name starts with E or e (3):
| gene | reagent | total luciferase, z-score | total luciferase, % of control |
| --- | --- | --- | --- |
| EIPR1 (EARP complex and GARP complex interacting protein 1) | 1 | -0.432 | 73.3 |
| EIPR1 (EARP complex and GARP complex interacting protein 1) | 2 | 3.05 (active) | 143 |
| EIPR1 (EARP complex and GARP complex interacting protein 1) | 3 | -1.19 | 58.3 |
